Reference: PubChem BioAssay AID1671190 (National Center for Advancing Translational Sciences (NCATS), 2021)
The whole screen tested about 580,000 compounds, of which about 6,100 (1.1%) were called active. Inconclusive means that the source gave no clear call. Such entries were picked first, then a sample of the others. Calls follow the shape of the dose curve; as a rule, active = well fitted inhibition curve with a large enough effect; inconclusive = small, poorly fitted or top-dose-only effect, or another doubt; inactive = no such curve, though single readings can be large or run the other way. Potencies beside an inconclusive call are fits to weak or partial responses and may not hold up.

The chains behind the UniProt entries cited, without tags or fusion partners.
UniProt P18054, whole entry, looked up: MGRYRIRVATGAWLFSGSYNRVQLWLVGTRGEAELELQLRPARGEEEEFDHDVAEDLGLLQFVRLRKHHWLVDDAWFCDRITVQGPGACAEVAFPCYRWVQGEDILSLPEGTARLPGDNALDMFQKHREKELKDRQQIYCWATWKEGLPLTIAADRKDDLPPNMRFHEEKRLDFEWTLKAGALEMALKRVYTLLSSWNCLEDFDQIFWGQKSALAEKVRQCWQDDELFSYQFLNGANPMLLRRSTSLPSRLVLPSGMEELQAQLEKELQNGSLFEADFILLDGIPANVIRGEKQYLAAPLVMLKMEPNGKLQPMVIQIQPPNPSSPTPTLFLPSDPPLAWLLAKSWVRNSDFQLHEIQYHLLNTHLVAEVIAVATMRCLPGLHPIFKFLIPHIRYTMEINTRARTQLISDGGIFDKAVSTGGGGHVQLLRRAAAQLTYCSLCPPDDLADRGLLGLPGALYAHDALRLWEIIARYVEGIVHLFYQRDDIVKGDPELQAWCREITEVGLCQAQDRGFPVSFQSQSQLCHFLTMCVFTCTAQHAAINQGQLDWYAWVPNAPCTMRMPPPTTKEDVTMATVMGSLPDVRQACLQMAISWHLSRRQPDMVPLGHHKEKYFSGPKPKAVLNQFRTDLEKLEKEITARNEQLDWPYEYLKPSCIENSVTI

Each compound was assayed against Polyunsaturated fatty acid lipoxygenase ALOX12 (Homo sapiens) (UniProt P18054) (assay: Primary qHTS assay for inhibitors of human arachidonate 12S-lipoxygenase (ALOX12): Round 2). Conditions: purified 12hLO, xylenol orange hydroperoxide absorbance; series mostly up to 108 µM.
Summary of the method: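 Hydroperoxide product was detected by ferrous iron/xylenol orange as the 573 to 405 nm absorbance ratio. Arachidonic acid at 40 uM (final) was turned over for 30 min at room temperature by 150 nM human 12hLO, pH 7.0 Hepes buffer, after 15 min compound preincubation.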
Potency is read from the fitted curve at half-maximal effect.

SMILES	Potency
COc1ccccc1NC(=O)Nc1cccc(NC(C)=O)c1	inactive
COC(=O)C1=C(C)NC(=O)C1(NC(=O)c1ccccc1C)C(F)(F)F (centres undefined)	inactive
Cc1ccsc1/C=C1/CN(C)Cc2c1nc1ccccc1c2C(=O)O	inconclusive: 100 µM [inhibitor, partial curve, poor fit]
O=C1CC(c2cccc(F)c2F)c2c(n3c(nc4ccccc43)[nH]c2=O)N1 (centres undefined)	inactive
CCOc1ccc(S(=O)(=O)N2CC(=O)Nc3ccccc32)cc1C#N	inactive
CC1CCCCN1C(=O)c1cc2cc([N+](=O)[O-])ccc2oc1=O (centres undefined)	inactive
COc1ccc(OC(=O)c2cnccn2)cc1	inconclusive: 10 µM [inhibitor, full curve]
c1ccc2sc(-n3cc(C4CCCCC4)nn3)nc2c1	inconclusive: 79.4 µM [inhibitor, single point]
O=C1/C(=C/c2cccs2)SC(=S)N1CC(=O)N1CCCCC1CCO (centres undefined)	inconclusive: 14.1 µM [inhibitor, partial curve, poor fit]
COc1ccc(CC2(CO)CCN(Cc3cc4ccccc4o3)CC2)cc1	inconclusive: 79.4 µM [inhibitor, partial curve, poor fit]
Cc1ccc(S(=O)(=O)N(C)C)cc1NC(=S)NC1CCCC(C)C1C (centres undefined)	inconclusive: 50.1 µM [inhibitor, partial curve, poor fit]
C=C(C)COc1ccc2c(C)c(CC(=O)NCCc3ccc(S(N)(=O)=O)cc3)c(=O)oc2c1	inactive
O=C(Nc1ccccc1)Nc1cc(S(=O)(=O)N2CCOCC2)ccc1N1CCCC1	inconclusive: 50.1 µM [inhibitor, partial curve, poor fit]
COc1ccc(C(=O)N2CCCC(c3nn(-c4ccc(Cl)cc4)c(=O)[nH]3)C2)cc1 (centres undefined)	inconclusive: 35.5 µM [inhibitor, partial curve]
Oc1ccc(Br)cc1CNc1nccs1	inactive
CCOCCCn1c(=N)c(C(=O)NCC2CCCO2)cc2c(=O)n3cc(C)ccc3nc21 (centres undefined)	inconclusive: 56.2 µM [inhibitor, partial curve, poor fit]
O=C(N[C@H]1C/C=C\C(c2ccc(F)cc2)N(Cc2ccccc2)C(=O)C1)OCC1c2ccccc2-c2ccccc21 (some centres undefined)	inconclusive: 56.2 µM [inhibitor, partial curve, poor fit]
Cc1ccc(-c2ccc(/C=C(\C#N)c3ccccc3)o2)cc1	inactive
CSc1nnc(Cc2cc(=O)[nH]c(=O)[nH]2)n1-c1cccc(C)c1	inconclusive: 5.01 µM [inhibitor, full curve, poor fit]
Cc1ccc(S(=O)(=O)Cc2ccc(C(=O)O)o2)cc1	inconclusive: 35.5 µM [inhibitor, partial curve]
CN1CCN(c2nc3nnnn3c3sc4c(c23)CCN(Cc2ccccc2)C4)CC1	inactive
CNC(=O)N1CCC(C2CCN(C(=O)CCCc3ccccc3)C2)CC1 (centres undefined)	inactive

SMILES	Potency
C=C(Cl)COC(=O)c1ccc2[nH]c(C)c(C)c2c1	inconclusive: 50.1 µM [inhibitor, partial curve, poor fit]
CCn1cnc2c1c(=O)n(CC(=O)Nc1ccccc1OC(F)F)c(=O)n2Cc1ccccc1	inactive
CCOc1ccc(NC(=O)CN2C(=O)COc3ccc(S(=O)(=O)N4CCCC4)cc32)cc1	inactive
Cc1c(F)cccc1NS(=O)(=O)c1ccc2c(c1)c(C)cc(=O)n2C	inactive
COc1cccc(C(NC(C)=O)c2nc(-c3cnn(C)c3)cs2)c1 (centres undefined)	inconclusive: 126 µM [inhibitor, single point]
O=C(O)CCCCCN1C(=O)CSC1=S	inactive
CC1CN(CC(O)COC(c2ccccc2)c2ccccc2)CC(C)O1 (centres undefined)	inconclusive: 0.708 µM [inhibitor, full curve, poor fit]
CNC(=O)NC(=O)CN(C)Cc1ccc(C(C)C)cc1	inconclusive: 50.1 µM [inhibitor, single point]
COc1cc(C2CC(c3cccs3)=NN2C(=O)CCl)ccc1OC(F)F (centres undefined)	inconclusive: 56.2 µM [inhibitor, partial curve, poor fit]
O=C(CNCc1ccc(Cl)cc1)Nc1ccc(C(=O)N2CCCCCC2)cc1	inconclusive: 28.2 µM [inhibitor, partial curve]
COc1ccccc1OC(=O)c1cc2ccccc2oc1=O	inconclusive: 39.8 µM [inhibitor, partial curve, poor fit]
CC(=O)Nc1ccc(S(=O)(=O)N[C@@H](C)C(=O)NC2CCCc3ccccc32)cc1 (some centres undefined)	inconclusive: 112 µM [inhibitor, single point]
O=C1NC2(CCCCC2)N(C(=O)c2ccccc2F)C2=C1CCCC2	inactive
CCCCN1/C(=C/c2cccc[n+]2C)Sc2cc(NC(C)=O)ccc21	inconclusive: 35.5 µM [inhibitor, partial curve, poor fit]
Cc1cc(/C=C2\C(=N)N3N=C(CC(=O)N4CCOCC4)SC3=NC2=O)c(C)n1-c1ccccc1	inactive
CCCOc1ccc(CCc2n[nH]c(=S)n2-c2ccccc2)cc1	inconclusive: 56.2 µM [inhibitor, partial curve, poor fit]
CCCCOc1ccc(/C(O)=C(\C#N)c2nc3ccccc3[nH]2)cc1	inconclusive: 141 µM [inhibitor, single point]
COc1cc(/C=C/C(=O)OCc2cc(=O)oc3cc(C)ccc23)ccc1O	inconclusive: 35.5 µM [inhibitor, partial curve]
O=C1c2oc3ccc(Cl)cc3c(=O)c2C(c2cccc(Br)c2)N1CCO (centres undefined)	inconclusive: 70.8 µM [inhibitor, partial curve, poor fit]
Clc1ccc2c(NNc3ccccc3Cl)ccnc2c1	inconclusive: 3.16 µM [inhibitor, full curve, poor fit]
CCOc1ccccc1N1CCN(C(=O)c2cc3c(C)cc(C)cc3[nH]2)CC1	inconclusive: 50.1 µM [inhibitor, partial curve, poor fit]
O=C(Nc1ccc2[nH]c(=S)sc2c1)Nc1ccccc1F	active: 14.1 µM

Of the compounds above, 2 have bromine.
SMILES	Potency
Oc1ccc(Br)cc1CNc1nccs1	inactive
O=C1c2oc3ccc(Cl)cc3c(=O)c2C(c2cccc(Br)c2)N1CCO (centres undefined)	inconclusive: 70.8 µM [inhibitor, partial curve, poor fit]
